# Source: the supplement of paper PMC10849652
# The chains behind the UniProt entries cited, without tags or fusion partners. Where a name states a change or a piece, a line headed by the entry shows the natural chain unless it says otherwise.
# UniProt H0YH80: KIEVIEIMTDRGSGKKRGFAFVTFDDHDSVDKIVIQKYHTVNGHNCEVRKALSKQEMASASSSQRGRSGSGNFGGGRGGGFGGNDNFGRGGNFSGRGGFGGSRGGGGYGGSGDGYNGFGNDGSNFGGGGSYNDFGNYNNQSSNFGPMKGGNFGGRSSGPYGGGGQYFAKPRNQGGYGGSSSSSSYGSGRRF
# UniProt Q96ED9: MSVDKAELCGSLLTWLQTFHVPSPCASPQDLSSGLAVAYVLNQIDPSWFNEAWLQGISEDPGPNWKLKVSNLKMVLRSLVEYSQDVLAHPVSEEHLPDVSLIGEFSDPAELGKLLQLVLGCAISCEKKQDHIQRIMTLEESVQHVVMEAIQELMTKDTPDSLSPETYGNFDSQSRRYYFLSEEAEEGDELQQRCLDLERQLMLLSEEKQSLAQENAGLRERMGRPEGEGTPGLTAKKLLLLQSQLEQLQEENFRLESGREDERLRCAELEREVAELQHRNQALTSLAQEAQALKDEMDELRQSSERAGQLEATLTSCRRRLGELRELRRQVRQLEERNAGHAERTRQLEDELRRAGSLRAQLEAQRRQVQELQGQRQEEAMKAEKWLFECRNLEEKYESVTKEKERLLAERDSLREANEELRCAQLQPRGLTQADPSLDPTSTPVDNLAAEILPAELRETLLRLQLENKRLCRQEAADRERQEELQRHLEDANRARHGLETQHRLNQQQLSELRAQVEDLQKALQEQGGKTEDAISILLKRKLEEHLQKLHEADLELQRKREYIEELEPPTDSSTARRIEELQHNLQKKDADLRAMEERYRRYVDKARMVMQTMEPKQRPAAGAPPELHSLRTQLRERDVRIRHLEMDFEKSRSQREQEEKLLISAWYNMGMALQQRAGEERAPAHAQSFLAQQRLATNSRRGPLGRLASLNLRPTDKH
# UniProt Q9NWT6: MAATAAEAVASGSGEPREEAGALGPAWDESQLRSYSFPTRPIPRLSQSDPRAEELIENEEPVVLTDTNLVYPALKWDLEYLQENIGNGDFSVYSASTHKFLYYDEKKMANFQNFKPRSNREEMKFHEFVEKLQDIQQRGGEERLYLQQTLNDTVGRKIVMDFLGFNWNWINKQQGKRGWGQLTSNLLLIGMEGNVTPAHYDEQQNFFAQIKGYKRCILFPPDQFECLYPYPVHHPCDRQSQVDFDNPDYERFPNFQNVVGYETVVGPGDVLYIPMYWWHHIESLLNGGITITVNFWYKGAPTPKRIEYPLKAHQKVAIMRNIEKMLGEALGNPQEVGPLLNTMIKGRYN
# UniProt Q9NSB8: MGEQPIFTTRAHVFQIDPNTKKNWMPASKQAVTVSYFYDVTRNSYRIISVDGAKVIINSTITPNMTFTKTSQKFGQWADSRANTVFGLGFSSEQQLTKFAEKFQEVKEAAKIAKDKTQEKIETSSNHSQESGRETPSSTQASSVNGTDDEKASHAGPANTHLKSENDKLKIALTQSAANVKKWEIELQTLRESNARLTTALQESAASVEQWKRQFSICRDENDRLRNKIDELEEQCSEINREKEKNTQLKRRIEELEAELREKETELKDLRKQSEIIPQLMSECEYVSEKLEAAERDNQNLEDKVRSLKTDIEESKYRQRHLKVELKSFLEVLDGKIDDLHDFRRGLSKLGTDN
# UniProt Q92902: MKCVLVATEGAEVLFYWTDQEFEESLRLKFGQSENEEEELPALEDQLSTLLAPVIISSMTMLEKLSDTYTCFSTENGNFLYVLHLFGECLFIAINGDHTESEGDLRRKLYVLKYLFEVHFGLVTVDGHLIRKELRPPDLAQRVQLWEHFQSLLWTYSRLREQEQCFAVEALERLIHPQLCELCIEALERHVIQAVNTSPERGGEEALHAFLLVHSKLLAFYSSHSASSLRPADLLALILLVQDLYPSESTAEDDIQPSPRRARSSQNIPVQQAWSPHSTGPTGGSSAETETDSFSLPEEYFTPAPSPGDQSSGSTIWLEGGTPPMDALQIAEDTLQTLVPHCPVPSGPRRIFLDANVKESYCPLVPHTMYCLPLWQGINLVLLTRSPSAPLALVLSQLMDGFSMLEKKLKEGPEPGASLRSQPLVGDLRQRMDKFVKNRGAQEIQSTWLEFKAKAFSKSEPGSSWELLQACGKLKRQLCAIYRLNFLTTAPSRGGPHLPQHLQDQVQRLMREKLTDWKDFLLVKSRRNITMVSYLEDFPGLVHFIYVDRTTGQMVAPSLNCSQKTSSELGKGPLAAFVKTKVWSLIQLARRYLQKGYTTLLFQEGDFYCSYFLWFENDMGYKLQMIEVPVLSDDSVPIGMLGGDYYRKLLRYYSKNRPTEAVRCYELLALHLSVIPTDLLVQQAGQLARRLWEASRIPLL
# UniProt Q8TCT9: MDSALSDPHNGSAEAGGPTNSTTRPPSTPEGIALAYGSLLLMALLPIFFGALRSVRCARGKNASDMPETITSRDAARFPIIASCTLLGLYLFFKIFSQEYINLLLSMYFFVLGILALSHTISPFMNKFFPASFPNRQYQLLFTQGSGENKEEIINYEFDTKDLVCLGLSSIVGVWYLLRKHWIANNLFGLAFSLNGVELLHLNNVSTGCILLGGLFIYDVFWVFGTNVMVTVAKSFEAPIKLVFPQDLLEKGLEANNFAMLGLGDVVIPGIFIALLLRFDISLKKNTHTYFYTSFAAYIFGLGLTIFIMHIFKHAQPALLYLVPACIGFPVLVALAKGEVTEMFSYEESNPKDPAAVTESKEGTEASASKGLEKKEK
# UniProt Q9NQG7: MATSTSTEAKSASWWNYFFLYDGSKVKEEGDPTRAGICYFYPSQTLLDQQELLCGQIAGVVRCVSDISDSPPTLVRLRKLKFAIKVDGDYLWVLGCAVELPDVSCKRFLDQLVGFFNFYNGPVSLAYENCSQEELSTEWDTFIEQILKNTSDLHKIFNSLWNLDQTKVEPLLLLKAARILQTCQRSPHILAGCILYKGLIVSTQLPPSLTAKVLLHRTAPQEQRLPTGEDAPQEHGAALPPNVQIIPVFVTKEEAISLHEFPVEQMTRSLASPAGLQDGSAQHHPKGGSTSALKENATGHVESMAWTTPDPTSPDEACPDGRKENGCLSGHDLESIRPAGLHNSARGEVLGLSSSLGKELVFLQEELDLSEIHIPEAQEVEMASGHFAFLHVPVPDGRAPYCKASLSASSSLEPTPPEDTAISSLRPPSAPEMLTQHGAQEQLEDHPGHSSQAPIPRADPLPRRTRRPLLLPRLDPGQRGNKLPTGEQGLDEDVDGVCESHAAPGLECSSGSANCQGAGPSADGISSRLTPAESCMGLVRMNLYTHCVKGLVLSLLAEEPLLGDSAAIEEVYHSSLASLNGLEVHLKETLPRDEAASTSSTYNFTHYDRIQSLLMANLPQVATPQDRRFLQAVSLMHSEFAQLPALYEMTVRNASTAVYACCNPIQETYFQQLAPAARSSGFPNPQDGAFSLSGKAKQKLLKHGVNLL
# UniProt P41134: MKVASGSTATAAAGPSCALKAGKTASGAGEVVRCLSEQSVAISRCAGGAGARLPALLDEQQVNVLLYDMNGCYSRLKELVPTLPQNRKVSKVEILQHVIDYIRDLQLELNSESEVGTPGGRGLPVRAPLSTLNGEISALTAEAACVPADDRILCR
# UniProt P50135: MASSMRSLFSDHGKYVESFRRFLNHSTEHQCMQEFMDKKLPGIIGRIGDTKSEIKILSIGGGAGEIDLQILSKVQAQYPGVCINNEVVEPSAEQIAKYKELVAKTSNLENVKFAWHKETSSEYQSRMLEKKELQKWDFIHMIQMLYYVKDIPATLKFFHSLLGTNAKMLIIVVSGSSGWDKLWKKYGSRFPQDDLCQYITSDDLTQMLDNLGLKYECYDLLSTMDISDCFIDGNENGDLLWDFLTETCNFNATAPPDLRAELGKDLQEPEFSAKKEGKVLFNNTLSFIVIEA
# UniProt Q659A1: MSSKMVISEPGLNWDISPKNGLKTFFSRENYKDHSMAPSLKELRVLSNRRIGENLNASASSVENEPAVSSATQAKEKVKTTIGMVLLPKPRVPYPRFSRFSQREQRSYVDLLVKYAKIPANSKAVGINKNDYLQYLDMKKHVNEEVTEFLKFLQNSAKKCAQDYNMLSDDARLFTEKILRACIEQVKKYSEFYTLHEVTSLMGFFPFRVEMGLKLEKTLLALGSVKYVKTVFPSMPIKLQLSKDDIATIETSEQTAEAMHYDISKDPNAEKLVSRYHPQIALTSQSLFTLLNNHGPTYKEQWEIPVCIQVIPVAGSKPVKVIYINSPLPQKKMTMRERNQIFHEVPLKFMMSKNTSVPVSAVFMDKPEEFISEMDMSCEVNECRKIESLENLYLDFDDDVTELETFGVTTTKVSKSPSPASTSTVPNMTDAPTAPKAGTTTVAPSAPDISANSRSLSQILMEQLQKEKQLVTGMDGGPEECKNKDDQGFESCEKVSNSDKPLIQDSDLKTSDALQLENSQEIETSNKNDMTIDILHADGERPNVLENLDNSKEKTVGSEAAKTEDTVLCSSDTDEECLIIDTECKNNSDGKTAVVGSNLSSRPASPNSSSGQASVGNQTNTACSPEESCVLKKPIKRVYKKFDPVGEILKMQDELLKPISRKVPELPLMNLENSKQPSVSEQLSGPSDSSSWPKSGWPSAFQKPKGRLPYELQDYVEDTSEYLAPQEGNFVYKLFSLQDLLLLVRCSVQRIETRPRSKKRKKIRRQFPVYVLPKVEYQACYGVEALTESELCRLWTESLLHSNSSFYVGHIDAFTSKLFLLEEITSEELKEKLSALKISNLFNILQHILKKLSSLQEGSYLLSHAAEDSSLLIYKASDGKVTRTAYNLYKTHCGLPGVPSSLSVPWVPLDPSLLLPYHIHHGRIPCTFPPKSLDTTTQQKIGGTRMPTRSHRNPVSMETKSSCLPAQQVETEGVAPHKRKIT
# UniProt Q96EW2: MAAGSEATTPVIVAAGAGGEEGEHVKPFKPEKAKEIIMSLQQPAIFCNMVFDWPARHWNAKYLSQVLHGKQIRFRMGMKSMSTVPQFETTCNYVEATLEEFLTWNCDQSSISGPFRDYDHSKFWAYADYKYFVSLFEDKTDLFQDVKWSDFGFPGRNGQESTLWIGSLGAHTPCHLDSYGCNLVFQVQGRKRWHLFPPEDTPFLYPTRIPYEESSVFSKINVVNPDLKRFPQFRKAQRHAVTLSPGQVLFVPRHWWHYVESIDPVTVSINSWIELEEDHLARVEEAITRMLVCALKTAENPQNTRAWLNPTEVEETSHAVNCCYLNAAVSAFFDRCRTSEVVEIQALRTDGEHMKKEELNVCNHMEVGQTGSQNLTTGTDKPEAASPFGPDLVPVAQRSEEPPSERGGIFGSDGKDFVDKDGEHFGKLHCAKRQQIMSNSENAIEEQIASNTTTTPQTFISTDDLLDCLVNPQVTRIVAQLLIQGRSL
# UniProt Q9BW72: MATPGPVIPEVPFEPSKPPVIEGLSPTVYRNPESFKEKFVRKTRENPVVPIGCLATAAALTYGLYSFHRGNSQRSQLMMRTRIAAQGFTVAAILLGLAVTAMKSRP
# UniProt Q9UJC3, whole entry, looked up: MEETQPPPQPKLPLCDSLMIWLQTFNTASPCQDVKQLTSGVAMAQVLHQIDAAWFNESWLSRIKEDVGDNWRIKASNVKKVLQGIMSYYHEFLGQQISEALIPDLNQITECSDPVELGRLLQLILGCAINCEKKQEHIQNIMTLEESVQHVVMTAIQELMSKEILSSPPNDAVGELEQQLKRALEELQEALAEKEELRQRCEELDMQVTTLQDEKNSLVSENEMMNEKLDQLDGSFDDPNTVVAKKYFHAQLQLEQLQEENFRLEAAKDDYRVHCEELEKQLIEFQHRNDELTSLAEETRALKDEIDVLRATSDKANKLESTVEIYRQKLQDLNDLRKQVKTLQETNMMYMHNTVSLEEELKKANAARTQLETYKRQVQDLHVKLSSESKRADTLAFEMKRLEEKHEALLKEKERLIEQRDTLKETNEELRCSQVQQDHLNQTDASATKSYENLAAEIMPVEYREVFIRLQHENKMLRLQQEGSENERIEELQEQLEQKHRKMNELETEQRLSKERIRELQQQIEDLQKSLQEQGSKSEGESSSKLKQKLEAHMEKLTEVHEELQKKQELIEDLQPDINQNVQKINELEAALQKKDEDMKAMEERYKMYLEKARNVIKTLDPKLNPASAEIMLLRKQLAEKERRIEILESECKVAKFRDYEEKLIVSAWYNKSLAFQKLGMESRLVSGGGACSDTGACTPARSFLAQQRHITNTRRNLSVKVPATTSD
# UniProt O75506: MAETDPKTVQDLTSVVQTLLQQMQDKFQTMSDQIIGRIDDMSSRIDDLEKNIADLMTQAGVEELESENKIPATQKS
# UniProt Q9NWY4: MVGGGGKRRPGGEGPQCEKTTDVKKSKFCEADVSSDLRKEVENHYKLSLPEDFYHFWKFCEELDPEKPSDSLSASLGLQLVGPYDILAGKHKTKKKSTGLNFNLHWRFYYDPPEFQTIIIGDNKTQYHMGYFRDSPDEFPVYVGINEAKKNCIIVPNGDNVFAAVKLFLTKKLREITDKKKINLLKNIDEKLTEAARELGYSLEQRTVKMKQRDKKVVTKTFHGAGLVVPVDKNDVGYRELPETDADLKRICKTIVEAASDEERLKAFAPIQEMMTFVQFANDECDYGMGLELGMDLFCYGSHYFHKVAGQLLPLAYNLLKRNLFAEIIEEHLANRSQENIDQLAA
# This is one part of the list.
# Compound: CN1CCc2c(c3ccccc3n2Cc2ccc(C(=O)NO)cc2)C1 [Tubastatin A]
# Assay: log2 fold change, soluble protein after heating vs DMSO (PISA); higher = thermal stabilisation; K562 cells, 10 uM, 30 min; active = over 0.2 and 3.5 SD of the protein, either way, in both replicates (recomputed)
# Method in brief: (§1)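 K562 cells at 2×10^6 cells/mL were given 10 μM compound for 30 min. Aliquots then went through 3 min of heating across 48°C-58°C, were pooled, and were extracted in PBS with 0.5% NP-40 at 4°C, and the supernatant after 21,000xg for 90 min was quantified by TMTpro 16plex LC-MS/MS with channel sums equalised. Thermal stability relative to control samples, from duplicates, is given as log2 fold change.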
row,Target,log2 fold change
1,HNRNPA1 (UniProt H0YH80),inactive: 0
2,HSPA8 (UniProt E9PN89),inactive: -0.018
3,HOOK2 (UniProt Q96ED9),inactive: 0.128
4,HIF1AN (UniProt Q9NWT6),inactive: 0.15
5,HOMER2 (UniProt Q9NSB8),inactive: -0.132
6,HPS1 (UniProt Q92902),inactive: -0.009
7,HNRNPU isoform 2 (UniProt Q00839),inactive: 0.16
8,HM13 (UniProt Q8TCT9),inactive: -0.012
9,HPS4 isoform 4 (UniProt Q9NQG7),inactive: -0.04
10,ID1 (UniProt P41134),inactive: 0.61
11,HSP90AA2P (UniProt Q14568),inactive: -0.022
12,HMBS (UniProt F5H226),inactive: -0.104

# Compound: CNC(=O)C1=CC=CC=C1NC2=NC(=NC=C2Cl)NC3=C(C=C(C=C3)N4CCOCC4)OC
# Assay: as above
# Method in brief: as §1
row,Target,log2 fold change
1,HNMT (UniProt P50135),inactive: -0.052
2,HTR1F (UniProt P30939),inactive: 0.008
3,HSPA8 (UniProt E9PN89),inactive: -0.057
4,HSPA2 (UniProt P54652),active: 0.809
5,HIF1AN (UniProt Q9NWT6),inactive: 0.032
6,ICE2 (UniProt Q659A1),inactive: -0.19
7,HPS1 (UniProt Q92902),inactive: 0.011
8,HPS4 isoform 4 (UniProt Q9NQG7),inactive: -0.032
9,HSPBAP1 (UniProt Q96EW2),inactive: 0.037
10,ICA1 isoform 2 (UniProt Q05084),inactive: 0.156
11,HNRNPD (UniProt D6RF44),inactive: -0.048
12,ID1 (UniProt P41134),inactive: 0.037
13,ICOSLG isoform 2 (UniProt O75144),inactive: 0.296
14,HIGD2A (UniProt Q9BW72),inactive: -0.01
15,HOMER3 (UniProt Q9NSC5),inactive: -0.011
16,HTD2 (UniProt P86397),inactive: -0.007

# Compound: CNC(=O)c1ccc(Nc2ncc(C(F)(F)F)c(NCc3nccnc3N(C)S(C)(=O)=O)n2)cc1 [defactinib]
# Assay: as above
# Method in brief: as §1
row,Target,log2 fold change
1,HNRNPA1 (UniProt H0YH80),inactive: 0.332
2,HSPA8 (UniProt E9PN89),inactive: 0.044
3,HIF1AN (UniProt Q9NWT6),inactive: -0.06
4,ICE2 (UniProt Q659A1),inactive: 0.044
5,HOMER2 (UniProt Q9NSB8),inactive: 0.031
6,HPS1 (UniProt Q92902),inactive: -0.019
7,HM13 (UniProt Q8TCT9),inactive: 0.004
8,HOOK1 (UniProt Q9UJC3),inactive: -0.033
9,HSPBAP1 (UniProt Q96EW2),inactive: -0.127
10,ICOSLG isoform 2 (UniProt O75144),inactive: -0.07
11,HMBS (UniProt F5H226),inactive: 0.067
12,HTD2 (UniProt P86397),inactive: 0.041

# Compound: CNCc1ccc(-c2[nH]c3cc(F)cc4c3c2CCNC4=O)cc1 [rucaparib]
# Assay: as above
# Method in brief: as §1
row,Target,log2 fold change
1,HNRNPA1 (UniProt H0YH80),inactive: 0.509
2,HSPA8 (UniProt E9PN89),inactive: 0.101
3,HOOK2 (UniProt Q96ED9),inactive: 0.032
4,HIF1AN (UniProt Q9NWT6),inactive: 0.049
5,HMGXB4 (UniProt Q9UGU5),inactive: -0.108
6,HOMER2 (UniProt Q9NSB8),inactive: -0.035
7,HPS1 (UniProt Q92902),inactive: -0.157
8,HM13 (UniProt Q8TCT9),inactive: -0.024
9,HOOK1 (UniProt Q9UJC3),inactive: -0.028
10,HNRNPR (UniProt O43390),inactive: 0.154
11,HSBP1 (UniProt O75506),inactive: -0.339
12,HTD2 (UniProt P86397),inactive: -0.131

# Compound: CNc1nc(-c2ccc3c(N)n[nH]c3c2)cc(N2C[C@@H](C(=O)NC3CCCCC3)CC[C@H]2C)n1
# Assay: as above
# Method in brief: as §1
row,Target,log2 fold change
1,HIF1AN (UniProt Q9NWT6),inactive: 0.009
2,HPF1 (UniProt Q9NWY4),inactive: -0.195
3,HNRNPU isoform 2 (UniProt Q00839),inactive: 0.043
4,HOOK1 (UniProt Q9UJC3),inactive: -0.045
5,HPS4 isoform 4 (UniProt Q9NQG7),inactive: -0.072
6,HLA-A isoform 2 (UniProt P04439),inactive: -0.087
7,ICA1 isoform 2 (UniProt Q05084),inactive: 0.099
8,ID1 (UniProt P41134),inactive: -0.552

# Compound: COC(=O)N[C@@H](C)CNc1nccc(-c2cn(C(C)C)nc2-c2cc(Cl)cc(NS(C)(=O)=O)c2F)n1 [encorafenib]
# Assay: as above
# Method in brief: as §1
row,Target,log2 fold change
1,HNRNPA1 (UniProt H0YH80),inactive: 0.157
2,HSPA8 (UniProt E9PN89),inactive: 0.023
3,HOOK2 (UniProt Q96ED9),inactive: -0.157
4,HIF1AN (UniProt Q9NWT6),inactive: -0.016
5,HMGXB4 (UniProt Q9UGU5),inactive: -0.151
6,HOMER2 (UniProt Q9NSB8),inactive: 0.169
7,HPS1 (UniProt Q92902),inactive: 0.017
8,HM13 (UniProt Q8TCT9),inactive: -0.026
9,HOOK1 (UniProt Q9UJC3),inactive: 0.054
10,HNRNPR (UniProt O43390),inactive: 0.026
11,HSBP1 (UniProt O75506),inactive: -0.057
12,HTD2 (UniProt P86397),inactive: 0.006
